Data as given in PubChem BioAssay AID1159578 (Peter MacCallum Cancer Centre, 2015).

Assay: 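Knock-downs that alter how fast lymphatic endothelial cells migrate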 (primary screen)
Cells: human lymphatic endothelial cells
Reagents: siRNA pool against human genes, 40 nM
Time to read-out: 48 h after transfection
Measurement: 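High-content imaging of dye-stained cells in a scratch assay measures filled wound area and nuclei per well; duplicate means given as ratio to mock and robust z-score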
Scale: migration robust z-score: higher = faster migration into the scratch; migration relative to mock: higher = more scratch area covered than mock; nuclei per well: higher = more cells in the well
Call rule: 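Migration changed when robust z exceeds 2 or falls below -2 and mean nuclei number is at least 3300; otherwise not called changed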
Calls: active = migration changed; inactive = no migration change, or too few cells
The whole screen tested about 18,000 reagents; shown is an unselected part. About 1,030 of them (5.7%) count as active. 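Inactive calls also include pools with fewer than 3300 nuclei, whose migration was not assessed.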 Raw values are not corrected between plates.

| gene | migration robust z-score | migration class with cell-count check | migration relative to mock | nuclei per well, duplicate mean | Outcome |
| --- | --- | --- | --- | --- | --- |
| LCE4A (late cornified envelope 4A) | -0.99 | migration z between -2 and 2; enough cells | 0.62 | 5280 | inactive |
| CHD9 (chromodomain helicase DNA binding protein 9) | 0.88 | migration z between -2 and 2; enough cells | 0.98 | 5446 | inactive |
| ZNF404 (zinc finger protein 404) | 0.47 | migration z between -2 and 2; enough cells | 1.01 | 7052 | inactive |
| NT5C (5', 3'-nucleotidase, cytosolic) | -2 | migration z between -2 and 2; enough cells | 0.42 | 4830 | inactive |
| GPR132 (G protein-coupled receptor 132) | -2.44 | under 3300 nuclei; migration not judged | 0.34 | 3172 | inactive |
| OR4C3 (olfactory receptor family 4 subfamily C member 3) | 0.1 | migration z between -2 and 2; enough cells | 0.91 | 4584 | inactive |
| NDUFA13 (NADH:ubiquinone oxidoreductase subunit A13) | -1.25 | migration z between -2 and 2; enough cells | 0.55 | 3812 | inactive |
| CDK16 (cyclin dependent kinase 16) | -0.62 | under 3300 nuclei; migration not judged | 0.68 | 3119 | inactive |
| PRKRIP1 (PRKR interacting protein 1) | 0.11 | migration z between -2 and 2; enough cells | 0.82 | 5807 | inactive |
| MAVS (mitochondrial antiviral signaling protein) | -0.04 | migration z between -2 and 2; enough cells | 0.88 | 4794 | inactive |
| BCAP29 (B cell receptor associated protein 29) | -1.06 | migration z between -2 and 2; enough cells | 0.6 | 5158 | inactive |
| PRSS27 (serine protease 27) | -0.02 | migration z between -2 and 2; enough cells | 0.8 | 5549 | inactive |
| USP17L9P | 0.96 | migration z between -2 and 2; enough cells | 0.99 | 6210 | inactive |
| CRYL1 (crystallin lambda 1) | -1.09 | migration z between -2 and 2; enough cells | 0.6 | 5291 | inactive |
| APCS (amyloid P component, serum) | 0.16 | migration z between -2 and 2; enough cells | 0.92 | 5970 | inactive |
| SYNC (syncoilin, intermediate filament protein) | -1.18 | migration z between -2 and 2; enough cells | 0.57 | 3847 | inactive |
| PPP4R3A (protein phosphatase 4 regulatory subunit 3A) | -1.1 | migration z between -2 and 2; enough cells | 0.6 | 6754 | inactive |
| FAM81B (family with sequence similarity 81 member B) | -0.48 | migration z between -2 and 2; enough cells | 0.76 | 6416 | inactive |
| RPUSD2 (RNA pseudouridine synthase domain containing 2) | -0.68 | migration z between -2 and 2; enough cells | 0.71 | 7024 | inactive |
| OCLM (retired record) | 1.77 | migration z between -2 and 2; enough cells | 1.34 | 7273 | inactive |
| TMPRSS11B (transmembrane serine protease 11B) | 0.99 | migration z between -2 and 2; enough cells | 1 | 6253 | inactive |
| ASIC1 (acid sensing ion channel subunit 1) | -1.22 | migration z between -2 and 2; enough cells | 0.57 | 4227 | inactive |
| EIF4E (eukaryotic translation initiation factor 4E) | -0.34 | migration z between -2 and 2; enough cells | 0.74 | 6038 | inactive |
| CSTF2T (cleavage stimulation factor subunit 2 tau variant) | 0.02 | migration z between -2 and 2; enough cells | 0.89 | 4282 | inactive |
| LZTS2 (leucine zipper tumor suppressor 2) | 1.14 | under 3300 nuclei; migration not judged | 1.19 | 3262 | inactive |
| MON1B (MON1 vesicular trafficking associated B) | -0.41 | migration z between -2 and 2; enough cells | 0.78 | 5920 | inactive |
| ELOA (elongin A) | 1.12 | migration z between -2 and 2; enough cells | 1.02 | 5966 | inactive |
| NKAIN3 (sodium/potassium transporting ATPase interacting 3) | -0.9 | migration z between -2 and 2; enough cells | 0.65 | 3912 | inactive |
| SIRT2 (sirtuin 2) | 0.01 | migration z between -2 and 2; enough cells | 0.88 | 6314 | inactive |
| FZD7 (frizzled class receptor 7) | 1.06 | migration z between -2 and 2; enough cells | 1.01 | 5027 | inactive |
| KIF2A (kinesin family member 2A) | -0.39 | migration z between -2 and 2; enough cells | 0.73 | 4920 | inactive |
| MAP4K5 (mitogen-activated protein kinase kinase kinase kinase 5) | -0.34 | migration z between -2 and 2; enough cells | 0.74 | 5119 | inactive |
| KCNJ8 (potassium inwardly rectifying channel subfamily J member 8) | -0.44 | migration z between -2 and 2; enough cells | 0.72 | 5108 | inactive |
| SSPOP (SCO-spondin, pseudogene) | -0.04 | migration z between -2 and 2; enough cells | 0.88 | 5529 | inactive |
| DMXL1 (Dmx like 1) | 0.03 | migration z between -2 and 2; enough cells | 0.9 | 6382 | inactive |
| OR6S1 (olfactory receptor family 6 subfamily S member 1) | 2.23 | migration z above 2; enough cells | 1.46 | 6472 | active |
| MTCH1 | 0.61 | migration z between -2 and 2; enough cells | 1.04 | 5970 | inactive |
| TMEM219 (transmembrane protein 219) | -1.6 | migration z between -2 and 2; enough cells | 0.47 | 6436 | inactive |
| TEX2 (testis expressed 2) | -0.26 | migration z between -2 and 2; enough cells | 0.82 | 6258 | inactive |
| TMEM59L (transmembrane protein 59 like) | -3.06 | under 3300 nuclei; migration not judged | 0.11 | 2207 | inactive |
| BMP10 (bone morphogenetic protein 10) | 2.29 | migration z above 2; enough cells | 1.48 | 4434 | active |
| SEPTIN7 (septin 7) | 0.29 | migration z between -2 and 2; enough cells | 0.96 | 7576 | inactive |
| NEURL3 (neuralized E3 ubiquitin protein ligase 3) | -1.5 | migration z between -2 and 2; enough cells | 0.52 | 5648 | inactive |
| IRX5 (iroquois homeobox 5) | -0.02 | migration z between -2 and 2; enough cells | 0.88 | 6009 | inactive |
| ARMCX6 (armadillo repeat containing X-linked 6) | -0.22 | migration z between -2 and 2; enough cells | 0.83 | 4203 | inactive |
| PRIM2 (DNA primase subunit 2) | -3.63 | under 3300 nuclei; migration not judged | 0.11 | 2230 | inactive |
| IKZF1 (IKAROS family zinc finger 1) | 0.1 | migration z between -2 and 2; enough cells | 0.91 | 7060 | inactive |
| TCEAL4 (transcription elongation factor A like 4) | 0.24 | migration z between -2 and 2; enough cells | 0.95 | 6108 | inactive |
| ZPR1 (ZPR1 zinc finger) | 0.03 | migration z between -2 and 2; enough cells | 0.89 | 5274 | inactive |
| VPS8 (VPS8 subunit of CORVET complex) | 0.78 | migration z between -2 and 2; enough cells | 0.96 | 5454 | inactive |
| METTL16 (methyltransferase 16, RNA N6-adenosine) | 0.16 | migration z between -2 and 2; enough cells | 0.92 | 5152 | inactive |
| BCAN (brevican) | -0.16 | migration z between -2 and 2; enough cells | 0.84 | 5318 | inactive |
| ADH6 (alcohol dehydrogenase 6 (class V)) | -0.86 | migration z between -2 and 2; enough cells | 0.64 | 5728 | inactive |
| ZNF816 (zinc finger protein 816) | 1.44 | migration z between -2 and 2; enough cells | 1.26 | 6724 | inactive |
| ZFP14 (ZFP14 zinc finger protein) | 0.12 | migration z between -2 and 2; enough cells | 0.92 | 5366 | inactive |
| GPR173 (G protein-coupled receptor 173) | -1.9 | migration z between -2 and 2; enough cells | 0.44 | 6862 | inactive |
| GSTA1 (glutathione S-transferase alpha 1) | 0.02 | migration z between -2 and 2; enough cells | 0.89 | 7192 | inactive |
